Data on 2 molecules can be found in paper doi:10.1101/2021.04.08.438850.

Assay [1] has as its target Bin3 (methyl phosphate capping enzyme homolog), protein A-tagged (S. pombe). Briefly: affinity purification with mass spectrometry.
The target is the same in assay [2]. Briefly: affinity purification with mass spectrometry. The source holds these as a separate data set.

Where two headings read alike, the source gives them in different places. These are yes or no findings as the source states them, for the method shown. In cells and extracts the contact can be indirect. Here binding means that the protein was enriched with, or labelled near, the bait; the list need not be complete. For part of these data: A no says only that the protein was not detected with the bait.

B1: Tgs1 (TMG capping enzyme) (enzyme, UniProt Q09814 1-239)
chain: MNKNEELDEDELLKKCIICPPVPKALKKYWNNRYNLFSRFDEGIWLDYQSWYSVTPEKVAVAIAKSVVDFIQPELIIDAFSGCGGNTIQFAKYCPVISIEIDPIKIAMAKHNLEIYGIPSSRVTFIQGDVLDTFKSLQFAKDYRSLVFMSPPWGGPSYSGKTVYSLNDLNPYAFDVLFKEATRISPYVAAFLPRNTDVKELAAYGSIHNKPYITNFLFEGYAKAICCYFNMKGAIARKI
With B1, the binding entry in assay [1] is reported as “no binding”.

B2: Pof8 (LARP7 family protein), endogenous (protein, UniProt O13795 1-402)
chain: MFVPRQLNVRKIKAFTGKENNSIADGNNNKLKDEHYKHNEASKEPSHSISGGLMLNQQDRQLIEPLNPDFLSAVDSILEIYFHRERQKEKVHLAFLIQQDDFWKGIRPNPTQNNLKYALSYVTNALFHFDNSSHMVIRNENIVLPLDIPLYDRIIYVEPVPATLSNKSLLLAGKLRKYLKEFLPYVDAIGTPEGYAFVILYKKVDQSALSKLPVPPGWVLLTRKEWTNREEKYFENQLHLVKASSSDVSNSSNSFPENRYPKLTKVEKQMTKSVSKTSQTDKDEDNLDFTKNLLTRIKNLHPLTNKSTIHSLLSYVFSRQTQNIACEPMYIDYRKDETEAIIRWKTPLHAETCINAFRTQERKQNSHDDIRAHRKKGSSRPFLIAELITGEEEKNYWRMLKK
In the case of B2, the binding entry in assay [2] and in assay [1] was “binds” in each case.
